“And” between values parts separate entries of the source, which are not always exact repeats. Equal entries are not always repeated. The campaign covered roughly 580,000 compounds. About 6,100 (1.1%) were called active. The inconclusive results got no clear call from the source; some entries with a clear call stand among them for comparison. Calls follow the shape of the dose curve; as a rule, active = well fitted inhibition curve with a large enough effect; inconclusive = small, poorly fitted or top-dose-only effect, or another doubt; inactive = no such curve, though single readings can be large or run the other way. Potencies of inconclusive entries are doubtful fits and often do not repeat.
Biological target: Polyunsaturated fatty acid lipoxygenase ALOX12 (Homo sapiens) (UniProt P18054)
Assay: Primary qHTS assay for inhibitors of human arachidonate 12S-lipoxygenase (ALOX12): Round 2
Conditions: purified 12hLO, xylenol orange hydroperoxide absorbance; activity change, negative = inhibition: at 108 µM (top of the series) unless noted
How it was run: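 Hydroperoxide product was detected by ferrous iron/xylenol orange as the 573 to 405 nm absorbance ratio. Arachidonic acid at 40 uM (final) was turned over for 30 min at room temperature by 150 nM human 12hLO, pH 7.0 Hepes buffer, after 15 min compound preincubation.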
% is scaled to controls: 0 for no effect and ±100 for the full control effect; potency is read from the fitted curve at half-maximal effect.

The chains behind the UniProt entries cited, without tags or fusion partners.
UniProt P18054, whole entry, looked up: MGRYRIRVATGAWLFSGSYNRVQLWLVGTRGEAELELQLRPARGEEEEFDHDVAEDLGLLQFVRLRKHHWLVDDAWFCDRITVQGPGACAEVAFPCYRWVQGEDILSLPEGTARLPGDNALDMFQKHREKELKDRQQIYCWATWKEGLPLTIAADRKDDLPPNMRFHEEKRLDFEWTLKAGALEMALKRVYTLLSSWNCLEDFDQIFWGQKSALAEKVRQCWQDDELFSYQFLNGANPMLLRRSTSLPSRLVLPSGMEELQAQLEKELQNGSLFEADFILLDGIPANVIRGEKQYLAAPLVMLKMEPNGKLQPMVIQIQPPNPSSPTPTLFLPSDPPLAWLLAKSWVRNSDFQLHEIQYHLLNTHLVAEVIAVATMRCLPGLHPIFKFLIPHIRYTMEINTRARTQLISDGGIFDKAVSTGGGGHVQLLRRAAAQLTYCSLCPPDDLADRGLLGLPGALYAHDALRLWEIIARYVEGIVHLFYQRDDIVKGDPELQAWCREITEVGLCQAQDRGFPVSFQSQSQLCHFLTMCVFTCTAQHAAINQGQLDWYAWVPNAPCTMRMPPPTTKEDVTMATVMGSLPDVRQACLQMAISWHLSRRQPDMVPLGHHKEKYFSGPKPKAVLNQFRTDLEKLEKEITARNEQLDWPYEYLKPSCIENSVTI

SMILES	activity change, negative = inhibition	Potency
Cc1cc(NCCN2CCOCC2)n2ncc(-c3ccccc3)c2n1	inactive: 16.2%	–
O=C(O)c1ncsc1-c1ccccc1	–	inconclusive: 22.4 µM [inhibitor, partial curve]
CC(C)c1noc(CCCC(=O)Nc2cccc(OC3CCCC3)c2)n1	inactive: -29.3%	–
O=C(CCN1CCC(c2ccccc2)C1)c1ccco1 (configuration not stated)	inactive: -23.3%	–
Cn1ccc2c(N3CCCC3)cc3c(c21)C1CCC3C1 (configuration not stated)	–	active: 44.7 µM
C/C(=N/NC(=O)c1ccccn1)c1c[nH]c2ccccc12	inactive: 192%	–
COC(=O)C1=C(C)N(Cc2ccc(C(F)(F)F)cc2)C(=NCc2ccc3c(c2)OCO3)NC1c1cccc(Cl)c1 (configuration not stated)	–	inconclusive: 50.1 µM [inhibitor, partial curve, poor fit]
Cn1cc(S(=O)(=O)NCc2ccc3c(c2)OCO3)c(C(F)(F)F)n1	–	inconclusive: 39.8 µM [inhibitor, partial curve, poor fit]
O=C(O)CC1NC(=S)N(Cc2ccccc2)C1=O (configuration not stated)	–	inconclusive: 8.91 µM [inhibitor, full curve, poor fit]
CC(C)c1ccc(NC(=O)Cc2nn(C)c(=O)c3ccccc23)cc1	inactive: -14.6%	–
CN(C)c1cccc(C(=O)N2CCC3(CC2)NC(=O)N(c2cccc(F)c2)N3)c1	–	active: 2.24 µM
O=C1CS(=O)(=O)N(Cc2cccc(F)c2)c2ccc(Br)cc21	–	inconclusive: 44.7 µM [inhibitor, partial curve, poor fit]
O=C(Nc1nnc(C2CC2)s1)c1nn(Cc2ccccc2)c(=O)c2ccccc12	–	inconclusive: 44.7 µM [inhibitor, single point]
CN1CC(=O)N(C2CCCNC2)Cc2c(NC3CCCCC3O)ncnc21 (configuration not stated)	–	inconclusive: 7.94 µM [inhibitor, full curve]
COc1cc(N(C)C)ccc1C=c1c2ccccc2n2c1cc(-c1ccccc1)[n+]2C	–	inconclusive: 50.1 µM [inhibitor, partial curve, poor fit]
O=C(c1ccco1)c1cc2c(ccc3ccccc32)oc1=O	–	inconclusive: 89.1 µM [inhibitor, single point]
COC(=O)C1=C/CCCN(C(c2ccccc2)c2ccccc2)/C=C\1C(=O)OC	–	inconclusive: 28.2 µM [inhibitor, partial curve]
C=C(COC(C)=O)C1Cc2c(ccc3c2OC2COc4cc(OC)c(OC)cc4C2C3=O)O1 (configuration not stated)	inactive: -25.6%	–
c1ccc(N2CCN(c3ncnc4sc5c(c34)CCC5)CC2)cc1	inactive: -11%	–
CC(C)CCC(CCN1CCOCC1)c1ccc2c(c1)OCO2 (configuration not stated)	–	inconclusive: 50.1 µM [inhibitor, partial curve, poor fit]
CN(C)c1ccc(-c2cncnc2Nc2ccc(F)cc2)cc1	–	inconclusive: 44.7 µM [inhibitor, partial curve, poor fit]

Single entries from the results shown:
CN(C)c1cccc(C(=O)N2CCC3(CC2)NC(=O)N(c2cccc(F)c2)N3)c1 – Potency: active: 2.24 µM
COC(=O)C1=C(C)N(Cc2ccc(C(F)(F)F)cc2)C(=NCc2ccc3c(c2)OCO3)NC1c1cccc(Cl)c1 (configuration not stated) – Potency: inconclusive: 50.1 µM [inhibitor, partial curve, poor fit]
O=C(Nc1nnc(C2CC2)s1)c1nn(Cc2ccccc2)c(=O)c2ccccc12 – Potency: inconclusive: 44.7 µM [inhibitor, single point]

(list continues)

SMILES	activity change, negative = inhibition	Potency
COc1c(O)ccc(/C=C(\C#N)c2nc3ccccc3[nH]2)c1[N+](=O)[O-]	–	inconclusive: 50.1 µM [inhibitor, partial curve, poor fit]
COc1ccc(C2CC(c3ccc4ccccc4c3)=NN2C(=O)COC(=O)C2CCC(=O)N2)cc1 (configuration not stated)	inactive: -14.1%	–
O=C(Cc1csc(-c2ccc(F)cc2)n1)Nc1ccnn1Cc1ccc(Cl)cc1	–	inconclusive: 11.2 µM [inhibitor, full curve]
COc1ccc(S[C@@H](CCN2CC[C@H](NC(=O)OCc3ccccc3)CCC2=O)c2ccccc2)cc1	inactive: -10.2%	–
CN(C)Cc1cc(C(C)(C)C)cc(N2CCOCC2)c1O	–	inconclusive: 44.7 µM [inhibitor, partial curve, poor fit]
Cc1ccc(NC(=O)C(C)N2CCCc3ccccc32)cc1S(=O)(=O)N1CCOCC1 (configuration not stated)	–	inconclusive: 44.7 µM [inhibitor, partial curve]
COc1ccc(-c2cc(=S)ss2)cc1	–	active: 17.8 µM and inconclusive: 12.8 µM [inhibitor, single point]
O=C(NC(=S)Nc1cccnc1Cl)c1ccc(Cl)cc1	–	inconclusive: 35.5 µM [inhibitor, partial curve, poor fit]
O=C(N/N=C/c1cc(Br)c(Br)o1)C(O)c1ccccc1 (configuration not stated)	inactive: -16%	–
N#Cc1cnn2c(C(F)(F)F)cc(-c3ccco3)nc12	–	inconclusive: 39.8 µM [inhibitor, partial curve, poor fit]
COc1ccc(COC(=O)C2=C(C)NC3=C(C(=O)CCC3)C2c2ccccc2C(F)(F)F)cc1 (configuration not stated)	–	inconclusive: 39.8 µM [inhibitor, single point]
NC(=O)C1CCCN(CC(O)COCc2ccc(Cl)cc2)C1 (configuration not stated)	–	inconclusive: 1 µM [inhibitor, full curve, poor fit]
S=C(c1ccc(-c2ccccc2Cl)o1)N1CCCCC1	–	inconclusive: 50.1 µM [inhibitor, partial curve, poor fit]
CNS(=O)(=O)Cc1ccc(CNC(=O)NC(C)CO)cc1 (configuration not stated)	inactive: -12.3%	–
CCC(=O)OCC(=O)Nc1ncc(C(F)(F)F)cc1Cl	–	inconclusive: 3.98 µM [inhibitor, partial curve, poor fit]
Cc1cc([N+](=O)[O-])cc(/C=N/n2c(C)nc3ccccc3c2=O)c1O	–	inconclusive: 56.2 µM [inhibitor, partial curve, poor fit]
O=C(c1ccccc1)c1ccc(C(=O)N2CCN(c3ccccc3)CC2)cc1	–	inconclusive: 7.94 µM [inhibitor, partial curve, poor fit]
O=C(COC(=O)C(Cc1c[nH]c2ccccc12)NC(=O)c1ccc(Br)cc1)c1ccc(Cl)cc1 (configuration not stated)	–	inconclusive: 126 µM [inhibitor, partial curve, poor fit]
Nn1c(SCC(=O)Nc2ccc3c(c2)OCCO3)nnc(CCC(=O)O)c1=O	inactive: -13.2%	–
COc1cccc([S+](=O)([O-])N2CCc3nc(C4CC4)nc(-c4ccc(Cl)cc4)c3C2)c1	–	inconclusive: 89.1 µM [inhibitor, single point]
Cc1c(NC(=O)c2ccc(Cl)c([N+](=O)[O-])c2)cccc1-n1cnnn1	–	inconclusive: 89.1 µM [inhibitor, single point]
